Measured values from patent publication US20240398895A1 (priority 2020, published 2024).

Test system: 56NEPHREX rats (subtotal 5/6th nephrectomy) fed a high phosphate diet
Assay: Serum chemistries after 28-day ASARM infusion in the subtotal 5/6th nephrectomy CKD-MBD rat model
Assay type: in vivo
Method: To show ASARM can treat kidney disease, a Wister rat subtotal ⅚th nephrectomy experimental CKD-MBD model (NEPHREX) was used and sham operated rats (SHAM) were used as controls. Male rats (16 week, 250 gm) were fed a high phosphate diet to worsen mineral metabolism defects (2% P, 2000 IU Vit D and 0.8% Ca; Teklad #170496; Envigo envigo.com/teklad). Protocol and rat numbers for osmotic pump (Alzet) infusion of ASARM-peptide, and intravenous injection are determined. Pump infusion with ASARM peptide or vehicle was carried out for 28 days and rats were maintained on a high phosphate diet.
Ten days after 5/6 nephrectomy or sham operations, rats were subjected to the following protocols. There were 6 SHAM operated rates with no ASARM, but with vehicle and high phosphate diet. There were 10 CKD-MBD model rates administered ASARM without a vehicle, but with high phosphate diet. There were 12 CKD-MBD model rates without ASARM, but with vehicle and high phosphate diet. The biological samples of blood and urine were taken from the rats at 5 days post-surgery, blood was taken at 12 days. At day 12, the infusion of ASARM began, with blood and urine being collected at day 24, blood being taken at day 35, and then blood, urine, and necropsy at day 47.
Continuous infusion (28 days) of ASARM peptide and vehicle was undertaken using subcutaneous transplantation of alzet osmotic-pumps (Durect Corporation, Cupertino California). Pump models 2ML4 (28 day model; infusion rate 2.5 uL/hr) were used. The pumps were implanted in rats anesthetized with isoflurane. An ASARM peptide pump infusion rate of 8.4 nmols/kg/hr or 5.1×10^15 molecules/kg/hr) was used for 28 days. This flow rate is based on prior results and consistent with known circulating levels of ASARM-peptides in HYP and wild type rodents. Animals were housed individually, and food intake monitored to assess whether treatments affect appetite. The diet (TEKLAD #170496) was high in non-phytates inorganic phosphate (Pi). Specifically, the high phosphate diet (HPO4) consist of 2% Pi and 2000 U of vitamin D (Teklad, 170496).
Serum Pi, calcium, fractional excretion of phosphate, FGF23, KLOTHO, PTH, 1,25 Vit-D3, osteopontin, immunohistology, MEPE and analyses were carried out as described previously [Zelenchuk, L V, et al., Age dependent regulation of bone-mass and renal function by the MEPE ASARM-motif. Bone, 79:131-142, 2015; Zelenchuk, L, et al., SPR4-peptide Alters Bone Metabolism of Normal and HYP Mice. Bone, 72:23-33, 2015; Zelenchuk, L V, et al., PHEX Mimetic (SPR4-Peptide) Corrects and Improves HYP and Wild Type Mice Energy-Metabolism. PLOS One, 9: e97326, 2014; David, V, et al., ASARM peptides: PHEX-dependent & independent regulation of serum phosphate. […]

[1] = 56NEPHREX rats, high phosphate diet, 28 days infusion

## NH2-RDDSSESSDSGS-(PO3H2)SS-(PO3H2) ES-(PO3H2) DGD-OH (RDDSSESSDSGSSSESDGD; phosphoserines; N-terminal amine, C-terminal acid; Description of Unknown: ASARM sequence; MOD_RES 12 Phosphoserine (Ser(PO3H2)); MOD_RES 14 Phosphoserine (Ser(PO3H2)); MOD_RES 16 Phosphoserine (Ser(PO3H2))) [ASARM peptide, small, phosphorylated peptide (2.2 kDa) from the MEPE ASARM motif]
56NEPHREX rats over the 28 days
  serum cholesterol: remained unchanged
[1]
  serum FGF23 levels: remained high
  serum PTH levels: high serum PTH levels
All groups after 28 days
  serum uric acid levels: no significant differences
